The record followed here is PubChem BioAssay AID2685 (National Center for Advancing Translational Sciences (NCATS), 2010).

A short description of the assay: qHTS Assay for Lipid Storage Modulators in Drosophila S3 Cells.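 On cell number change: cells counted by Cell Tracker Red CMTPX staining in the red channel.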 As to conditions: BODIPY lipid droplet fluorescence, 18-24 h; for cell number change: measured here: cell count max response, cells fed with added oleic acid. The method in brief: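 Laser-scanning cytometry quantifies lipid droplet accumulation (500–530 nm total intensity; droplet/cell object ratio) in oleic acid-fed (400 uM added) Drosophila S3 cells treated with a concentration series. 20 uM Triacsin C defined 100% inhibition.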
Background: Quantitative high-throughput screening tests each substance at several concentrations.

Where [1] appears, read: measured here: lipid fluorescence (Fed channel) AC50, cells fed with added oleic acid.
Where [2] appears, read: measured here: cell number channel AC50, cells fed with added oleic acid.

This is one part of the list. Further columns of the screen follow, without active or inactive calls. Most of these compounds were active or inconclusive in the main read-out, so they are no random draw. Words in brackets tell the shape of the fitted curve; partial curves, single points and poor fits give uncertain potencies.

`COc1cc(/C=C2/SC(=S)N(c3c(C)n(C)n(-c4ccccc4)c3=O)C2=O)ccc1O`: the cell number change is 5.09%. Besides, the half-maximal activity concentration (AC50) – broadly, the midpoint of the concentration-response curve, whichever way the signal moves – under setting [1] was 29.1 µM [falling, single point].

For the compound `CSc1ccc(C#N)cc1NC(=O)c1ccc(Cl)cc1Cl`, the AC50 is 1.03 µM [rising, full curve] under setting [2] and 0.651 µM [rising, full curve] under setting [1].

As to `COc1ccccc1-c1nc(-c2cccc(C)c2)no1`, the cell number change was -9.2%.

Take `CS(=O)(=O)c1ccc2nc(NC(=O)C3COc4ccccc4O3)sc2c1` (stereo not drawn): the cell number change was -22.1%. Besides, the AC50 under setting [1] is 32.6 µM [falling, partial curve, poor fit].

Regarding `C/C(=N/NC(=O)c1cccs1)c1ccco1`, the cell number change was found to be 3.53%.

As to `Cc1sc(NC(=S)NC(=O)c2cccs2)nc1-c1ccc(CC(C)C)cc1`, the cell number change is 14.8%.

As for `O=C1C2CC=CCC2C(=O)N1CC1CCCO1` (stereo not drawn), the cell number change was -108%. Further, the AC50 under setting [2] was 25.9 µM [falling, partial curve]. Also, the AC50 under setting [1] is 6.51 µM [falling, single point].

On to `CCCOc1ccc(-c2c(C(=O)N/N=C(\C)c3ccco3)nnn2-c2nonc2N)cc1`, for which the cell number change was -95.4%. For the same compound, the AC50 under setting [2] is 29.1 µM [falling, single point].

Regarding `O=C(Cc1ccccc1)Nc1cccc(-c2nnc(-c3ccco3)o2)c1`, the cell number change was -0.862%. For the same compound, the concentration at half-maximal activity (AC50) under setting [1] was 1.3 µM [falling, full curve].

For the compound `Cc1cccc(C2N=C(N)Nc3nc4ccccc4n32)c1` (stereo not drawn), the cell number change was 14.1%. Further, under setting [1], the half-maximal activity concentration (AC50) was 6.51 µM [rising, full curve, poor fit].

Turning to `Cc1c(C(=O)Oc2cccc3cccnc23)oc2ccccc12`, the cell number change was 102%.

`O=C(OCc1c(F)cccc1Cl)c1cc([N+](=O)[O-])ccc1N1CCOCC1`: the cell number change was -4.42%.

As for `O=C(Nc1cccc(Cl)c1)c1cc(N=Nc2ccc([N+](=O)[O-])cc2Cl)ccc1O`, the cell number change is -46.4%. For the same compound, under setting [2], the half-maximal activity concentration (AC50) was 0.206 µM [falling, full curve, poor fit]. For the same compound, the AC50 under setting [1] was 20.6 µM [falling, single point].

As to `COC(=O)c1ccccc1OS(=O)(=O)N(C)C`, the cell number change was -11.8%. For the same compound, under setting [2], the AC50 is 0.00461 µM [falling, full curve, poor fit]. Moreover, under setting [1], the AC50 is 6.51 µM [falling, single point].

Turning to `CCOc1ccc(Nc2oc(-c3cccc(Cl)c3)nc2C#N)cc1`, the cell number change was -62.1%. Further, under setting [2], the AC50 is 25.9 µM [falling, single point].

On to `COc1cc(/C=N/NC(=S)N/N=C/c2cc(OC)c(OC)c(OC)c2)cc(OC)c1OC`, for which the cell number change was -83.3%. Further, the concentration at half-maximal activity (AC50) under setting [2] is 23.1 µM [falling, partial curve]. In addition, the concentration at half-maximal activity (AC50) under setting [1] was 6.51 µM [rising, partial curve].

For the compound `COc1ccc(C(=O)Nc2nc(-c3ccc(OC)cc3)c(-c3ccc([N+](=O)[O-])cc3)s2)cc1`, the cell number change is 18.4%. Besides, the concentration at half-maximal activity (AC50) under setting [1] is 14.6 µM [rising, single point].

As to `COc1ccccc1OCCCc1c(C)n[nH]c1C`, the cell number change is -6.19%.

Turning to `OC(COc1ccc2c(c1)OCO2)CN1CCN(c2ccc(F)cc2)CC1` (stereo not drawn), the cell number change is 28.7%.

For `CC(=O)c1ccc(NC2=C(N3CCOCC3)C(=O)c3ccccc3C2=O)cc1`, the cell number change is -7.36%.

As for `CNc1oc(-c2cccs2)nc1C#N`, the cell number change was 9.48%. Further, the concentration at half-maximal activity (AC50) under setting [1] was 13 µM [rising, partial curve].

For the compound `C=CCn1c(-c2ccc(N)cc2)nc2ccccc21`, the cell number change was -21.1%. Further, the AC50 under setting [1] was 0.517 µM [rising, full curve].

Consider `COc1cccc(NC(=O)CN(C)C(=O)c2c(C)noc2C)c1`, for which the cell number change is -46.5%. Also, the AC50 under setting [2] was 29.1 µM [falling, single point]. Moreover, under setting [1], the half-maximal activity concentration (AC50) is 10.3 µM [rising, partial curve, poor fit].

On to `CCOCCCn1c(=O)c(NC(=O)c2ccc(OCC)cc2)c2n(c1=S)CCCCC2`, for which the half-maximal activity concentration (AC50) under setting [2] was 0.651 µM [rising, full curve, poor fit].

Consider `COc1ccc(N2CCN(C(=O)c3cn(C)c(=O)c4c3c3ccccc3n4C)CC2)cc1`, for which the cell number change worked out at 0.209%. In addition, the half-maximal activity concentration (AC50) under setting [1] was 0.116 µM [rising, full curve, poor fit].

For the compound `CCS(=O)(=O)NCc1csc(-c2ccccc2)n1`, the cell number change was 16.5%. Besides, under setting [2], the AC50 was 0.731 µM [falling, single point].

Turning to `Cc1ccccc1N(CC(=O)NCc1ccc2c(c1)OCO2)C(=O)CCC(=O)Nc1ccccn1`, the cell number change was found to be 2.52%. Also, the AC50 under setting [1] is 0.461 µM [rising, full curve].

Consider `OCCN(Cc1ccccc1)c1ncnc2sccc12`, for which the cell number change came to 18.3%. For the same compound, the concentration at half-maximal activity (AC50) under setting [1] is 6.51 µM [rising, single point].

On to `O=C(CN1C(=O)NC2(CCCC2)C1=O)OCc1ccc(Cl)c(Cl)c1`, for which the cell number change was -100%. Further, the AC50 under setting [2] was 13 µM [falling, partial curve].

With `Cc1ccc(/C=N/Nc2ccnc3cc(Cl)ccc23)c(C)c1`, the cell number change was -81.4%. Also, the concentration at half-maximal activity (AC50) under setting [2] was 5.8 µM [falling, full curve]. Besides, the AC50 under setting [1] is 5.17 µM [falling, full curve].

`Cc1cc(N2C(=O)CC(N3CCN(C(c4ccccc4)c4ccccc4)CC3)C2=O)no1` (stereo not drawn): the cell number change was 2.13%. Moreover, under setting [1], the concentration at half-maximal activity (AC50) is 0.116 µM [rising, single point].

Regarding `Cc1c(C(=O)O)sc2nc3n(c(=O)c12)CCC3`, the cell number change was -33.2%. Further, under setting [1], the concentration at half-maximal activity (AC50) was 25.9 µM [falling, single point].

Consider `CSc1cccc(NS(=O)(=O)c2ccc(F)cc2)c1`, for which the cell number change is -11.8%.

Regarding `Cc1cccc(-c2nnc(SCc3ccccc3)o2)c1`, the cell number change was 2.23%. Besides, the half-maximal activity concentration (AC50) under setting [2] is 0.0146 µM [falling, full curve, poor fit].

For the compound `COC(=O)c1ccc(N2C(=O)CC(NCc3ccccc3)C2=O)cc1` (stereo not drawn), the cell number change was 0.742%. For the same compound, the AC50 under setting [1] was 7.31 µM [falling, partial curve, poor fit].

Regarding `CC(=O)NNc1cc(C)nc(NS(=O)(=O)c2ccc(C)cc2)n1`, the cell number change was -3.04%.

In the case of `COc1ccc(C)cc1NC(=O)Nn1cnnc1`, the cell number change came to 13.1%. Also, the half-maximal activity concentration (AC50) under setting [1] was 23.1 µM [falling, partial curve].

Take `CCN(CC)C(=O)CSc1nc2ccccc2c(=O)n1CCC(=O)NCc1ccc(F)cc1`: the cell number change is -101%. Under setting [2], the AC50 was 20.6 µM [falling, single point]. Also, the half-maximal activity concentration (AC50) under setting [1] was 29.1 µM [falling, single point].

Regarding `Cc1ccccc1C(=O)N1CCC(C(=O)N2CCN(c3ncccn3)CC2)CC1`, the cell number change is 14.8%. In addition, the concentration at half-maximal activity (AC50) under setting [1] was 2.91 µM [falling, single point].

As to `CCN(CC(=O)Nc1c(F)cccc1F)C(=O)c1ccc2ccccc2n1`, the cell number change came to 5.12%.

`Nc1ccc(Oc2ccc3c(c2)OCO3)cc1`: the cell number change is -41.5%. Under setting [2], the AC50 is 10.3 µM [falling, partial curve, poor fit]. Further, under setting [1], the AC50 is 7.31 µM [falling, full curve, poor fit].
